The list shows only some results of the screen, not a fair sample: it is rich in T/C values a quarter to a half above the control, in often repeated tests (any T/C) and in doses without a T/C. Other doses and runs of a compound stand elsewhere. T/C is the treated group as % of the vehicle group. Some doses have a count of surviving animals in place of a T/C: the source files T/C as zero there, which appears to mark a toxic dose or a test without result, not a measured value. Some doses without a T/C left all or most animals alive at the check, yet need not have been tolerated: the source hardly ever lists a survival T/C far under the control, and the zero likely stands for such cases as well. Survivors were counted at the toxicity check, usually on the fifth day, unless a day is given; later deaths do not show. Schedules are NCI's codes, taken here to give the interval after Q, in days (D) or hours (H), and the number of doses after X. For survival time, the PubChem record calls one and a half times the control and up active, and a quarter to a half above the control has no call in these data; cut-offs in other NCI protocols can differ.
Test system: P388 leukemia ip, CD2F1 mice, survival T/C
Experiment: NCI In Vivo Anticancer Drug Screen. Data for tumor model P388 Leukemia (intraperitoneal) in CD2F1 (CDF1) mice
Settings: T/C endpoint: median survival time, higher T/C = longer survival
[1] = dose: 100.0 mg/kg/injection, schedule: Q01DX009 (ip), vehicle: saline
[2] = dose: 200.0 mg/kg/injection, schedule: Q01DX009 (ip), vehicle: saline
[3] = dose: 120.0 mg/kg/injection, schedule: Q01DX005 (ip), vehicle: saline
[4] = dose: 240.0 mg/kg/injection, schedule: Q01DX005 (ip), vehicle: saline
[5] = dose: 120.0 mg/kg/injection, schedule: Q01DX005 (ip), vehicle: Klucel (hydroxypropylcellulose) (HPC)
[6] = dose: 200.0 mg/kg/injection, schedule: Q01DX005 (ip), vehicle: Klucel (hydroxypropylcellulose) (HPC)
[7] = dose: 200.0 mg/kg/injection, schedule: Q01DX005 (ip), vehicle: saline with Tween-80
[8] = dose: 100.0 mg/kg/injection, schedule: Q01DX005 (ip), vehicle: saline with Tween-80
[9] = dose: 200.0 mg/kg/injection, schedule: Q01DX009 (ip), vehicle: saline with Tween-80
[10] = dose: 32.0 mg/kg/injection, schedule: Q04DX003 (ip), vehicle: distilled water + Tween-80

O=c1c2ccccc2[nH]c2cc3c(=O)n4ccccc4nc3cc12
survivor count (dose: 120.0 mg/kg/injection, schedule: Q01DX005 (ip), vehicle: saline with Tween-80): 5 of 6

CC(OC(=O)c1ccccc1C(=O)O)c1ccccc1 (centres undefined)
survivor count [1]: 1 of 6
survivor count [2]: 0 of 6

CN(C[CH2][Sn]([CH3])([CH3])[Cl])C[CH2][Sn]([CH3])([CH3])[Cl]
survivor count (dose: 15.0 mg/kg/injection, schedule: Q01DX005 (ip), vehicle: saline): 0 of 6
survivor count (dose: 60.0 mg/kg/injection, schedule: Q01DX005 (ip), vehicle: saline): 0 of 6
survivor count [3]: 0 of 6
survivor count [4]: 0 of 6

CCOc1cc2cc(CCC#N)c(C)cc2cn1
survivor count (dose: 100.0 mg/kg/injection, schedule: Q01DX009 (ip), vehicle: distilled water + Tween-80): 6 of 6
survivor count (dose: 200.0 mg/kg/injection, schedule: Q01DX009 (ip), vehicle: distilled water + Tween-80): 5 of 6

CC(C)COCSCC(NC(=O)CNC(=O)C(Cc1ccccc1)NC(=O)CNC(=O)C(CSC(c1ccccc1)(c1ccccc1)c1ccccc1)NC(c1ccccc1)(c1ccccc1)c1ccccc1)C(=O)O (centres undefined)
survivor count [5]: 6 of 6
survivor count (dose: 240.0 mg/kg/injection, schedule: Q01DX005 (ip), vehicle: Klucel (hydroxypropylcellulose) (HPC)): 6 of 6

O=C1CCOc2cccc(c2)OCCC(=O)OCCCOC(=O)CCOc2cccc(c2)OCCC(=O)OCCCO1
survivor count (dose: 100.0 mg/kg/injection, schedule: Q01DX005 (ip), vehicle: Klucel (hydroxypropylcellulose) (HPC)): 6 of 6
survivor count [6]: 6 of 6

O=C(Nc1ccc(N=Nc2ccccc2)cc1)SCCO
survivor count [7]: 4 of 6

O=c1cccccc1[O][Sn]([O]c1cccccc1=O)([c]1ccccc1)[c]1ccccc1
T/C (dose: 200.0 mg/kg/injection, schedule: Q01DX001 (ip), vehicle: Klucel (hydroxypropylcellulose) (HPC)): 125 % of control

CC1(C)C[C@H]2C=C(C=O)[C@]34C[C@]3(C(=O)OC4O)[C@H]2C1 (some centres undefined)
T/C (dose: 0.39 mg/kg/injection, schedule: Q01DX009 (ip), vehicle: Klucel (hydroxypropylcellulose) (HPC)): 126 % of control
survivor count (dose: 3.12 mg/kg/injection, schedule: Q01DX009 (ip), vehicle: Klucel (hydroxypropylcellulose) (HPC)): 1 of 6
survivor count (dose: 6.25 mg/kg/injection, schedule: Q01DX009 (ip), vehicle: Klucel (hydroxypropylcellulose) (HPC)): 1 of 6
survivor count (dose: 12.5 mg/kg/injection, schedule: Q01DX009 (ip), vehicle: Klucel (hydroxypropylcellulose) (HPC)): 0 of 6
survivor count (dose: 25.0 mg/kg/injection, schedule: Q01DX009 (ip), vehicle: Klucel (hydroxypropylcellulose) (HPC)): 0 of 6

CC(/C=N\NC(=S)SCc1ccccc1)=N/N=C(N)N
survivor count [2]: 4 of 6

CNC(=O)OCc1c(COC(=O)NC)c(-c2ccccc2)n(C)c1-c1ccccc1
T/C (dose: 2.5 mg/kg/injection, schedule: Q01DX009 (ip), vehicle: distilled water + Tween-80): 135 % of control
T/C (dose: 3.12 mg/kg/injection, schedule: Q01DX009 (ip), vehicle: distilled water + Tween-80): 127 % of control
T/C (dose: 5.0 mg/kg/injection, schedule: Q01DX009 (ip), vehicle: distilled water + Tween-80): 135 % of control
T/C (dose: 6.25 mg/kg/injection, schedule: Q01DX009 (ip), vehicle: distilled water + Tween-80): 148 % of control
T/C (dose: 25.0 mg/kg/injection, schedule: Q01DX009 (ip), vehicle: distilled water + Tween-80): 127 % of control
survivor count (dose: 50.0 mg/kg/injection, schedule: Q01DX009 (ip), vehicle: distilled water + Tween-80): 5 of 6

COc1ccccc1-n1cc[n+](C)c1/C=N/O
survivor count (dose: 50.0 mg/kg/injection, schedule: Q01DX009 (ip), vehicle: saline with Tween-80): 2 of 6
survivor count [1]: 0 of 6
survivor count [2]: 0 of 6

CCCCCCCCCCCC[N+]1(CC)CCCC1
survivor count (dose: 0.78 mg/kg/injection, schedule: Q01DX009 (ip), vehicle: saline): 4 of 6
survivor count (dose: 12.5 mg/kg/injection, schedule: Q01DX009 (ip), vehicle: saline): 2 of 6
survivor count (dose: 50.0 mg/kg/injection, schedule: Q01DX009 (ip), vehicle: saline): 0 of 6
survivor count [1]: 0 of 6
survivor count [2]: 0 of 6

O=S(=O)(O)C(I)S(=O)(=O)O
survivor count [2]: 1 of 6

CNC(C#N)C(C)F (centres undefined)
survivor count [3]: 2 of 6
survivor count [4]: 0 of 6

O=C(O)Cc1ccc2c(c1O)C(=O)c1ccccc1C2=O
survivor count [8]: 3 of 6
survivor count [7]: 0 of 6

COc1ccccc1C(O)(c1ccccc1OC)C1(O)CCN(C)CC1
survivor count [6]: 0 of 6

CSC(C#N)(c1ccccc1)N(C)C (centres undefined)
survivor count (dose: 200.0 mg/kg/injection, schedule: Q04DX003 (ip), vehicle: saline with Tween-80): 5 of 6
survivor count (dose: 400.0 mg/kg/injection, schedule: Q04DX003 (ip), vehicle: saline with Tween-80): 0 of 6

COc1ccc2nc3cc(Cl)ccc3c(NCCOCCO)c2c1
survivor count [9]: 4 of 6

CC1(C)COCN1CN1COCC1(C)C
survivor count (dose: 6.25 mg/kg/injection, schedule: Q04DX003 (ip), vehicle: saline): 5 of 6
survivor count (dose: 12.5 mg/kg/injection, schedule: Q04DX003 (ip), vehicle: saline): 0 of 6
survivor count (dose: 25.0 mg/kg/injection, schedule: Q04DX003 (ip), vehicle: saline): 0 of 6
survivor count (dose: 50.0 mg/kg/injection, schedule: Q04DX003 (ip), vehicle: saline): 0 of 6
survivor count (dose: 100.0 mg/kg/injection, schedule: Q04DX003 (ip), vehicle: saline): 0 of 6
survivor count (dose: 200.0 mg/kg/injection, schedule: Q04DX003 (ip), vehicle: saline): 0 of 6

COc1cc2c(c(OC)c1OC)-c1ccc(SC)c(=O)cc1C(NC(=O)c1ccccc1)CC2 (centres undefined)
survivor count (dose: 10.0 mg/kg/injection, schedule: Q01DX009 (ip), vehicle: Klucel (hydroxypropylcellulose) (HPC)): 6 of 6
survivor count (dose: 20.0 mg/kg/injection, schedule: Q01DX009 (ip), vehicle: Klucel (hydroxypropylcellulose) (HPC)): 5 of 6
T/C (dose: 2500.0 micrograms/kg/injection, schedule: Q01DX009 (ip), vehicle: Klucel (hydroxypropylcellulose) (HPC)): 130 % of control
T/C (dose: 5000.0 micrograms/kg/injection, schedule: Q01DX009 (ip), vehicle: Klucel (hydroxypropylcellulose) (HPC)): 143 % of control

COc1cccc2c1C(=O)c1c(O)c3c(c(O)c1C2=O)C[C@@](O)(C(C)=O)C[C@@H]3OC1CC(N=CCCCC=NC2CC(O[C@H]3C[C@](O)(C(C)=O)Cc4c(O)c5c(c(O)c43)C(=O)c3c(OC)cccc3C5=O)OC(C)C2O)C(O)C(C)O1 (some centres undefined)
T/C (dose: 4.0 mg/kg/injection, schedule: Q04DX003 (ip), vehicle: distilled water + Tween-80): 129 % of control
T/C (dose: 8.0 mg/kg/injection, schedule: Q04DX003 (ip), vehicle: distilled water + Tween-80): 131 % of control
T/C (dose: 16.0 mg/kg/injection, schedule: Q04DX003 (ip), vehicle: distilled water + Tween-80): 130 % of control
T/C [10]: 139 % of control
survivor count [10]: 6 of 6
survivor count (dose: 64.0 mg/kg/injection, schedule: Q04DX003 (ip), vehicle: distilled water + Tween-80): 4 of 6
survivor count (dose: 128.0 mg/kg/injection, schedule: Q04DX003 (ip), vehicle: distilled water + Tween-80): 1 of 6

O=c1ccc2cc(-c3ccncc3)cnc2[nH]1
survivor count (dose: 100.0 mg/kg/injection, schedule: Q04DX002 (ip), vehicle: saline with Tween-80): 3 of 6

NC(Cc1ccc[se]1)C(=O)O (centres undefined)
survivor count [8]: 0 of 6
survivor count [7]: 0 of 6

CNC(=O)NC(c1cc(OC)c(OC)c(OC)c1)c1cc2c(cc1O)OCO2 (centres undefined)
survivor count [5]: 6 of 6

COC[N+](C)(C)c1ccc(/C=C/C=O)cc1
survivor count [1]: 4 of 6
survivor count [2]: 0 of 6

Clc1ccc(S/N=C/c2ccccc2)cc1
survivor count [9]: 4 of 6

Nc1nsc2nc3ccccc3cc12
survivor count (dose: 50.0 mg/kg/injection, schedule: Q01DX005 (ip), vehicle: Klucel (hydroxypropylcellulose) (HPC)): 0 of 6

From PubChem BioAssay AID330 (DTP/NCI, 2004)
